Laboratory results taken from article PMC11299231 (Steroids, 2024).

Legend:
Experiment in all cases: Antiproliferative activity assay
Type in all cases: cell-based
MCF7 (ER + ) = settings: Homo sapiens, MCF7, 48 h, read-out: IC50 ± SEM, MCF7 (ER + )
MDA-MB-231 (ER-) = settings: Homo sapiens, MDA-MB-231, 48 h, read-out: IC50 ± SEM, MDA-MB-231 (ER−)
PC3 (AR-) = settings: Homo sapiens, 48 h, read-out: IC50 ± SEM, PC3 (AR−)
DU145 (AR-) = settings: Homo sapiens, DU-145, 48 h, read-out: IC50 ± SEM, DU145 (AR−)
T84 wt = settings: Homo sapiens, 48 h, read-out: IC50 ± SEM, T84 wt
HT-29 = settings: Homo sapiens, HT-29, 48 h, read-out: IC50 ± SEM, HT-29
HaCaT = settings: Homo sapiens, 48 h, read-out: IC50 ± SEM, HaCaT

CC/C(=C(\c1ccccc1)c1ccc(OCCN(C)C)cc1)c1ccccc1 [Tamoxifen, tamoxifen]
IC50 (MCF7 (ER + )): 1.1 ± 0.4 µM
IC50 (MDA-MB-231 (ER-)): 4 ± 1 µM
IC50 (PC3 (AR-)): 14 ± 5 µM
IC50 (DU145 (AR-)): 13.2 ± 0.2 µM
IC50 (T84 wt): 12.4 ± 0.1 µM
IC50 (HT-29): 6.4 ± 0.1 µM
IC50 (HaCaT): 13 ± 1 µM
